No constants are given. Whether binding was seen depends on the method and setting. Some entries that bind do so weakly or less than the wild type.

By UniProt entry, the sequences of proteins in these tests, tags left out.
UniProt Q06330: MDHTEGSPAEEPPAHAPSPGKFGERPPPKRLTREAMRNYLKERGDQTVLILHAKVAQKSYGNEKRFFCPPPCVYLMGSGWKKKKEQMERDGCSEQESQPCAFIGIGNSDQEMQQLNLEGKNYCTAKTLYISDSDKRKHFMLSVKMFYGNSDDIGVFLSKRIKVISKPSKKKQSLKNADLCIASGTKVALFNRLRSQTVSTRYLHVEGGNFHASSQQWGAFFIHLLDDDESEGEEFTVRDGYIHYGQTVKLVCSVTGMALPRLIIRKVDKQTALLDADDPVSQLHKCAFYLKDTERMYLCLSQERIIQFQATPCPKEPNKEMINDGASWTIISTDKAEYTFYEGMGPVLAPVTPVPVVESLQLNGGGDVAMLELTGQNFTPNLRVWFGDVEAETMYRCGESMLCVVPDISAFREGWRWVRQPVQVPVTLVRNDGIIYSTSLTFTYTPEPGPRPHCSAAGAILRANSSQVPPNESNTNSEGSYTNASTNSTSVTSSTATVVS

Data on one substance can be found in patent US20050201975A1.

The target of test [1] is GAL4BD-N1 fragment (1762-1829) fusion protein (human (Notch1 part)). As to the kind of experiment: yeast two-hybrid screen of human spleen cDNA library, AH109pLOR67.
Test [2] has the same target. As to the kind of experiment: yeast two-hybrid retransformation, -WLH, -WLHA, -WLHAXαGAL plates and LacZ filter assay.

As to “GAL4AD fusion protein encoded by plasmid 8-2 (CBF1 fragment) (from UniProt Q06330 1-500)”, the binding entry in test [1] and in test [2] was “binds” throughout.
